Laboratory results taken from the supplement of paper PMC10849652.
Some of the results follow.

By UniProt entry, the sequences of proteins in these tests, tags left out. Where a name states a change or a piece, a line headed by the entry shows the natural chain unless it says otherwise.
UniProt Q8N684: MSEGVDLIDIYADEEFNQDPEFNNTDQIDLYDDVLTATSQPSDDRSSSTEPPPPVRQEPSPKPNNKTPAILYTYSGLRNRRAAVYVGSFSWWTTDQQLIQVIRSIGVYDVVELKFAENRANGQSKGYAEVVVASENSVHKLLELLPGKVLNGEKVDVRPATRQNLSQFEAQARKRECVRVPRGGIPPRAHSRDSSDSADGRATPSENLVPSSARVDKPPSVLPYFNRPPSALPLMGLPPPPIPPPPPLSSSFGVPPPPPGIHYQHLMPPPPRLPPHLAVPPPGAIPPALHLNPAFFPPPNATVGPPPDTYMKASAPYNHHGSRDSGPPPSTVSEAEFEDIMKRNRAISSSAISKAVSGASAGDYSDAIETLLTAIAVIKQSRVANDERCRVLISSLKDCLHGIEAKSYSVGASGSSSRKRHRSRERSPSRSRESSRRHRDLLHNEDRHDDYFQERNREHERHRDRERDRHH
UniProt Q86VX2, whole entry, looked up: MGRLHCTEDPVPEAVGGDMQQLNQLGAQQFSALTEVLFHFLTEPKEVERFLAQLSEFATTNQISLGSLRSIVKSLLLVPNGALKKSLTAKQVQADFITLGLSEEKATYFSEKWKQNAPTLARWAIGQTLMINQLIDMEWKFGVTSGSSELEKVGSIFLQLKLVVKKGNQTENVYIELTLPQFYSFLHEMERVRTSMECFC
UniProt Q9H3G5: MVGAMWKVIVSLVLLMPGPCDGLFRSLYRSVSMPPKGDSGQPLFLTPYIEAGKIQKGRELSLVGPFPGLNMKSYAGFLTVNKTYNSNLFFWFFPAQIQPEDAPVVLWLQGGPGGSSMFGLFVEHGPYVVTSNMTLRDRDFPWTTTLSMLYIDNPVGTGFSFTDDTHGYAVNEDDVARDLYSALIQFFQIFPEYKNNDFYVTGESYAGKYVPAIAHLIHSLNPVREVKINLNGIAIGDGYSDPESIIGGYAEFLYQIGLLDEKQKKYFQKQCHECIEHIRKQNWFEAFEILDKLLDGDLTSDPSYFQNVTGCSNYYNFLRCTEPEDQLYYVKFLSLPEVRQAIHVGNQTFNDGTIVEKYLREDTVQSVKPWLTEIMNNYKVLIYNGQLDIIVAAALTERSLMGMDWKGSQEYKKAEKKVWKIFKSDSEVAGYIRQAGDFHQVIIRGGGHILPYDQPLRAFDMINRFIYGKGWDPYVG
UniProt Q5JTJ3: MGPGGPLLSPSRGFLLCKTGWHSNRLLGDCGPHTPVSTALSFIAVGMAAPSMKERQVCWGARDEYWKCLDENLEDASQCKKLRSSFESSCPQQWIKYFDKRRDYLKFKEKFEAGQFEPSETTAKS
UniProt Q8N129: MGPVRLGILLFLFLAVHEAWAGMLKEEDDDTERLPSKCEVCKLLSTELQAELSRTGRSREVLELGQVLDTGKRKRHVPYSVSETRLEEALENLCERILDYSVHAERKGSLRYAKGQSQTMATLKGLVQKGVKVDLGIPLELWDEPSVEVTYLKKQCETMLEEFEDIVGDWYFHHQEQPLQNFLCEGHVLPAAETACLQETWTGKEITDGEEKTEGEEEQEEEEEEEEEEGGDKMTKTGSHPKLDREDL
UniProt P61923: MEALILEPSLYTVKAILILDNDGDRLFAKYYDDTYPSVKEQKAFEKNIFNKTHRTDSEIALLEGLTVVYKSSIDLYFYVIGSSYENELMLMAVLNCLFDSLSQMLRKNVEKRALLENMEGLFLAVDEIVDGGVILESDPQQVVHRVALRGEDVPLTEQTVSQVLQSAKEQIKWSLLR
UniProt O95628: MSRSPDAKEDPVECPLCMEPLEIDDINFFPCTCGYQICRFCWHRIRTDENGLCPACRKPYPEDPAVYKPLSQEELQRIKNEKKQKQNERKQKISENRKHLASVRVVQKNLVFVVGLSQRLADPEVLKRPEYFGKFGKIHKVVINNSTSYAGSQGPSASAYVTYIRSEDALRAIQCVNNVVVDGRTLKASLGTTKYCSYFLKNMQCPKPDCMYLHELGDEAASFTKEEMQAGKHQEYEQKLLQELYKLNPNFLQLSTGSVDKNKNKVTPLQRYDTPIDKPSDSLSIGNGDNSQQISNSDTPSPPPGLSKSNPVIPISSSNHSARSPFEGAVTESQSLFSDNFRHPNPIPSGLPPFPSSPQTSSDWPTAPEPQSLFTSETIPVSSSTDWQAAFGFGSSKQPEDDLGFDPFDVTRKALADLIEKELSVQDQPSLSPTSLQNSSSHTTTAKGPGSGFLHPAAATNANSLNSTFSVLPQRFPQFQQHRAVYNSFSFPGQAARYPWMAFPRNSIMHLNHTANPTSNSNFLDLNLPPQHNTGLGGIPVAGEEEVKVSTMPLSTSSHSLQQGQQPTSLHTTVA
UniProt Q9NX08, whole entry, looked up: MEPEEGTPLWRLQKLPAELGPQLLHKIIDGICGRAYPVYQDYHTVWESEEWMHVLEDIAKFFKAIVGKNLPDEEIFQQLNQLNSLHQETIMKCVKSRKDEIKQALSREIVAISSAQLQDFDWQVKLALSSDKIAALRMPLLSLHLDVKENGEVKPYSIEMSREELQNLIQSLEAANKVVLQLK
UniProt P53621: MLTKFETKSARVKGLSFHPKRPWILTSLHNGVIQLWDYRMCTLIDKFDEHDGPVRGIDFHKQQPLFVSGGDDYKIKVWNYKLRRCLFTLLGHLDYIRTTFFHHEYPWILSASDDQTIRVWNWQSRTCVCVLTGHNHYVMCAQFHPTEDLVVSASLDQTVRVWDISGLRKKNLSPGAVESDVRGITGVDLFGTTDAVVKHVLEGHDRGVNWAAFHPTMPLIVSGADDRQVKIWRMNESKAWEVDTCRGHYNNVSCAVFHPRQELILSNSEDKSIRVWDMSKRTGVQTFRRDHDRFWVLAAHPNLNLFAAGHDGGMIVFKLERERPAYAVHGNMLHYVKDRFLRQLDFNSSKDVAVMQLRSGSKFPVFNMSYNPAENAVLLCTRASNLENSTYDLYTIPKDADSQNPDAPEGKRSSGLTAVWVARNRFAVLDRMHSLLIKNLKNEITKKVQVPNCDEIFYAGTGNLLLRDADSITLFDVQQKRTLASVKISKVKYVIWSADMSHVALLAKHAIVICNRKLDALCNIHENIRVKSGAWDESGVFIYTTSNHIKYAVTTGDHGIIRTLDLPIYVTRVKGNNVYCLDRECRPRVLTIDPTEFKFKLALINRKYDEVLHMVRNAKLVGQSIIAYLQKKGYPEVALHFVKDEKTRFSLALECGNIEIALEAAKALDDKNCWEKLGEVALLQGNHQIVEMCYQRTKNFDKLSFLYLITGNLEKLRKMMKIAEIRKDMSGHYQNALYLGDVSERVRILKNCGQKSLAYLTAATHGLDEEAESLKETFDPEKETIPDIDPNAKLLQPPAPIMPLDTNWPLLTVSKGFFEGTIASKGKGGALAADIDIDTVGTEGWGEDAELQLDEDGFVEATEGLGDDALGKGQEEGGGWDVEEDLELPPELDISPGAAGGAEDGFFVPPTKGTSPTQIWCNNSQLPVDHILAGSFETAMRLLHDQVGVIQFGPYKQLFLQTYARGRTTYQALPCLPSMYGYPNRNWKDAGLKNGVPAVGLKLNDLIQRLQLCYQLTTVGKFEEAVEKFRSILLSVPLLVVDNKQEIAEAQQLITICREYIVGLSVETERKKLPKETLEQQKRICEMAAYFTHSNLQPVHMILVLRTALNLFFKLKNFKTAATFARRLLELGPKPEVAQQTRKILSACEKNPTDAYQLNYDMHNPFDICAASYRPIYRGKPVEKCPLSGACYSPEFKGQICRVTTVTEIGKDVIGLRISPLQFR
UniProt Q9UBL6: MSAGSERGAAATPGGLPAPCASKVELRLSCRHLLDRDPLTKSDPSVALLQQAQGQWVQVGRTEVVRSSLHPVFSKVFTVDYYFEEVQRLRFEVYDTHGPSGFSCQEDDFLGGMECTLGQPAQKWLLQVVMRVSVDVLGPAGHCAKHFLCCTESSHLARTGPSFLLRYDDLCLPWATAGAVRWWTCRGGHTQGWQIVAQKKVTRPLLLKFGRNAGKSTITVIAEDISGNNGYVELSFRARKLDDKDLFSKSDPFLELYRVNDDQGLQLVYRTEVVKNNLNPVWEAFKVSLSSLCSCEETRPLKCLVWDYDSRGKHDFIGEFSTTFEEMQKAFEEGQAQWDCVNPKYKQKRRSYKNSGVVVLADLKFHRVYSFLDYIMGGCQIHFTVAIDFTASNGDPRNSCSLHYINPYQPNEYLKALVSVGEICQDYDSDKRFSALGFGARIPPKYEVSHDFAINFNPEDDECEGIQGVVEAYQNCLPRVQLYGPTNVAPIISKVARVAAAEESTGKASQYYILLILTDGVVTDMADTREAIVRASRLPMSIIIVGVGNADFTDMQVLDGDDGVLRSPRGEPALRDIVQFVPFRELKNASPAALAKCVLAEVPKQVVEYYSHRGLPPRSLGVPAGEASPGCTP
UniProt P83436: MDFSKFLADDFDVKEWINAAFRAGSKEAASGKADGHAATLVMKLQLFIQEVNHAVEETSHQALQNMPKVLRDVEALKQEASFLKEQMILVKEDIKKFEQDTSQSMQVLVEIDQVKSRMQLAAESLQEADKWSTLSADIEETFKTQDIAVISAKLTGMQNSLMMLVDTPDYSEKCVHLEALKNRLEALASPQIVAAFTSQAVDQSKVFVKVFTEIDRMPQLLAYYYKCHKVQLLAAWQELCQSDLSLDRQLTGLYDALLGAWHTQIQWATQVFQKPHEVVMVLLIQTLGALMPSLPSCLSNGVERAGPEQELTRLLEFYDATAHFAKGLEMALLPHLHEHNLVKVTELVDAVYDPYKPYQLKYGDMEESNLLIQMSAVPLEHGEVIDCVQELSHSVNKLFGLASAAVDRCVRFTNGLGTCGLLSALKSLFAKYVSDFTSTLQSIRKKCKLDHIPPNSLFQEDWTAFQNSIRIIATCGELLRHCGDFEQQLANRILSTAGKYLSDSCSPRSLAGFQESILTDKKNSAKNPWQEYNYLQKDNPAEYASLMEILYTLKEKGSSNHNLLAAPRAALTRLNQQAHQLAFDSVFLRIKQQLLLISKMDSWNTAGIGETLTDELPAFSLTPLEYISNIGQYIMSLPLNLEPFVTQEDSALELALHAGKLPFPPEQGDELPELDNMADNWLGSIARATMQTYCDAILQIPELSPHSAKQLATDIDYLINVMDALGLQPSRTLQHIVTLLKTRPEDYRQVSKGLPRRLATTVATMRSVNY
UniProt P09543: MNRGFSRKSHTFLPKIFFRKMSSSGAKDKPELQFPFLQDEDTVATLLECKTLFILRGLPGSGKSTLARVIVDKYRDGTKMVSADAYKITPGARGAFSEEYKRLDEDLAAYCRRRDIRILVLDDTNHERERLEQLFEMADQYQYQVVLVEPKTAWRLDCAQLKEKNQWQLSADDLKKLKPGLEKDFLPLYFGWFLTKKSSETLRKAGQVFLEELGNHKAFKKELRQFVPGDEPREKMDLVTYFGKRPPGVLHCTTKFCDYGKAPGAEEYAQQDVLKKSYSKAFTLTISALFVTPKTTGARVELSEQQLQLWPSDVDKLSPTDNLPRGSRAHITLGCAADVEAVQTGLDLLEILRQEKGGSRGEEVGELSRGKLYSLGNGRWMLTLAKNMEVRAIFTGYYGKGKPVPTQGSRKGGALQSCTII
UniProt Q5RI15: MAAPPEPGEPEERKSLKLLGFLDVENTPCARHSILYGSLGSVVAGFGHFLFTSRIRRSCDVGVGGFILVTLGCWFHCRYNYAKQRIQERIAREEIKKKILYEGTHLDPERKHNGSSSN
UniProt P51911: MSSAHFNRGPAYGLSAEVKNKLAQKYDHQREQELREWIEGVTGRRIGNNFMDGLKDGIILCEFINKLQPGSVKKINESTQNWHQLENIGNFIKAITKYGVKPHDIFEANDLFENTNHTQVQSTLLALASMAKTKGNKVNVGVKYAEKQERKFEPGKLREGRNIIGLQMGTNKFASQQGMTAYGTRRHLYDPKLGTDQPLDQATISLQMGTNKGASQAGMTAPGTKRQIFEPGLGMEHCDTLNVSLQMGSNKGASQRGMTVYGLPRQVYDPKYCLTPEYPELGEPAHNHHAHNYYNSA
UniProt Q99627: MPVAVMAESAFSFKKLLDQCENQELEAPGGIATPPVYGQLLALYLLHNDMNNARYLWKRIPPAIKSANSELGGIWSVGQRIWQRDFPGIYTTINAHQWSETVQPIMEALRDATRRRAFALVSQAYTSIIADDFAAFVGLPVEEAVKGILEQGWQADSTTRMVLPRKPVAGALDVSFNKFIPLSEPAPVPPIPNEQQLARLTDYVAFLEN
UniProt P09669, whole entry, looked up: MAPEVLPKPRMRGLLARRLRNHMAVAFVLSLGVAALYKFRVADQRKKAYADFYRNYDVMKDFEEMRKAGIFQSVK
UniProt Q92905, whole entry, looked up: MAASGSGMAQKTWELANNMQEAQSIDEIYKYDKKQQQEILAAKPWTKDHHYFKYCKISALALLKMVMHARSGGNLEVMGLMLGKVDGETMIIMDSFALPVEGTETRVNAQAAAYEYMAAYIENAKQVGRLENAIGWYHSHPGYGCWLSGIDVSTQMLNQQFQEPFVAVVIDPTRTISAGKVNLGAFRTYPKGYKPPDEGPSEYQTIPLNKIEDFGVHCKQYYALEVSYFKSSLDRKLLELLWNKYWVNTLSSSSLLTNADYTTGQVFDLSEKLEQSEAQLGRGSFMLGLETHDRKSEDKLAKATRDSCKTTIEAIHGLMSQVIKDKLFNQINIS

compound: Cn1cc(-c2ccc3c(c2)CCN3C(=O)Cc2cccc(C(F)(F)F)c2)c2c(N)ncnc21; test: log2 fold change, soluble protein after heating vs DMSO (PISA); higher = thermal stabilisation; K562 lysate, 10 uM; active = over 0.2 and 3.5 SD of the protein, either way, in both replicates (recomputed)
How it was run: (§1)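 Soluble protein was defined as the supernatant remaining after 21,000xg for 90 min, following pooling of heated aliquots and adjustment to 0.5% NP-40 at 4°C. Before that, crude K562 extract at 1 mg/mL protein in PBS pH 7.4 with 1 mM MgCl2 was treated with 10 μM compound for 30 min and heated for 3 min across 48°C-58°C. Quantification used TMTpro 16plex LC-MS/MS with channel sums equalised, and values are log-two fold changes in thermal stability relative to solvent controls from duplicates.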

log2 fold change, inactive:
COMMD6 isoform 2 (UniProt Q7Z4G1) 0.006
COL6A5 (UniProt A8TX70) -0.038
COIL (UniProt P38432) 0.015
CORO1A (UniProt P31146) 0.034
COA1 (UniProt Q9GZY4) 0.006
CPSF7 isoform 3 (UniProt Q8N684) 0.013
CRABP2 (UniProt P29373) 0.006
CPQ (UniProt Q9Y646) 0.016
COMMD7 (UniProt Q86VX2) -0.014
COPB1 (UniProt P53618) 0.001
CNOT8 (UniProt Q9UFF9) -0.023
CPVL (UniProt Q9H3G5) -0.092
COA3 (UniProt Q9Y2R0) -0.018
CPNE1 (UniProt Q99829) 0.002
COA6 isoform 2 (UniProt Q5JTJ3) -0.024
CNPY4 (UniProt Q8N129) 0
COPZ1 isoform 4 (UniProt P61923) 0.023
CNOT4 isoform 6 (UniProt O95628) 0.013
CNNM3 (UniProt Q8NE01) -0.012
COMMD8 (UniProt Q9NX08) -0.015
COPA isoform 2 (UniProt P53621) -0.01
CPNE7 (UniProt Q9UBL6) 0.053
CPNE3 (UniProt O75131) 0.024
CNOT9 (UniProt Q92600) -0.016
COG7 (UniProt P83436) 0.024
CORO1C isoform 3 (UniProt Q9ULV4) -0.016
CPED1 (UniProt A4D0V7) -0.002
COPS2 isoform 2 (UniProt P61201) -0.004
CNP (UniProt P09543) 0.003
CPSF2 (UniProt Q9P2I0) 0.023
COQ8A (UniProt Q8NI60) -0.05
COX20 isoform 2 (UniProt Q5RI15) 0.013
CNN1 (UniProt P51911) -0.038
CNOT11 (UniProt Q9UKZ1) 0.005
COPS8 (UniProt Q99627) -0.08
COX6C (UniProt P09669) -0.014
CNPY3 (UniProt Q9BT09) -0.03
COX5B (UniProt P10606) -0.078
CPOX (UniProt P36551) -0.012
COPS5 (UniProt Q92905) -0.004

compound: Cn1cc(CNCC2CCN(c3ncc(C(=O)NO)cn3)CC2)c2ccccc21 [quisinostat]; test: as above
How it was run: as §1

log2 fold change, inactive:
COMMD6 isoform 2 (UniProt Q7Z4G1) 0.048
COL6A5 (UniProt A8TX70) -0.377
COIL (UniProt P38432) -0.079
CORO1A (UniProt P31146) -0.028
COA1 (UniProt Q9GZY4) -0.011
CPSF7 isoform 3 (UniProt Q8N684) 0.018
CRABP2 (UniProt P29373) -0.004
CPQ (UniProt Q9Y646) -0.037
COMMD7 (UniProt Q86VX2) 0.028
COPB1 (UniProt P53618) -0.046
CNOT8 (UniProt Q9UFF9) -0.037
CPVL (UniProt Q9H3G5) -0.413
COA3 (UniProt Q9Y2R0) 0.002
CPNE1 (UniProt Q99829) -0.021
COA6 isoform 2 (UniProt Q5JTJ3) -0.083
CNPY4 (UniProt Q8N129) 0.092
COPZ1 isoform 4 (UniProt P61923) 0.289
CNOT4 isoform 6 (UniProt O95628) 0.107
CNNM3 (UniProt Q8NE01) -0.02
COMMD8 (UniProt Q9NX08) 0.038
COPA isoform 2 (UniProt P53621) -0.02
CPNE7 (UniProt Q9UBL6) -0.055
CPNE3 (UniProt O75131) -0.029
CNOT9 (UniProt Q92600) -0.044
COG7 (UniProt P83436) 0
CORO1C isoform 3 (UniProt Q9ULV4) -0.011
CPED1 (UniProt A4D0V7) -0.021
COPS2 isoform 2 (UniProt P61201) 0.084
CNP (UniProt P09543) -0.028
CPSF2 (UniProt Q9P2I0) 0
COQ8A (UniProt Q8NI60) 0.082
COX20 isoform 2 (UniProt Q5RI15) -0.017
CNN1 (UniProt P51911) 0.011
CNOT11 (UniProt Q9UKZ1) -0.095
COPS8 (UniProt Q99627) -0.018
COX6C (UniProt P09669) 0.105
CNPY3 (UniProt Q9BT09) 0.033
COX5B (UniProt P10606) 0.013
CPOX (UniProt P36551) 0.005
COPS5 (UniProt Q92905) -0.019
